# PubChem BioAssay AID1347076 (National Center for Advancing Translational Sciences (NCATS), 2019)
# Hit rate of the full screen: of about 400,000 compounds, about 13,000 (3.2%) were called active. The inconclusive results got no clear call from the source; some entries with a clear call stand among them for comparison. Calls come from the whole dose curve; as a rule, active = well fitted cell-killing curve with a large enough effect; inconclusive = small, poorly fitted or top-dose-only effect, or effect the other way; inactive = flat fitted curve, though single readings scatter. Potencies beside an inconclusive call are fits to weak or partial responses and may not hold up.
# Assay: qHTS assay for MDR1-selective chemotherapeutics: Primary screen using the drug-selected MDR subline cells KB-V1; note: nearly all actives have a fitted effect of over 60% in size
# Conditions: KB-V1 MDR cells viability, CellTiter-Glo, 72 h; series mostly up to 46.1 µM
# Outline: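 Cells of the MDR subline KB-V1 are plated, dosed with compound at multiple concentrations, and incubated 72 h at 37 degrees C; CellTiter-Glo is then added and luminescence read after 10 min.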
# Potency is the fitted concentration of half-maximal effect.
row,Compound,Potency
1,OC1(c2ccc(OC(F)F)cc2)CSC(=Nc2cccnc2)N1Cc1ccco1 (configuration not stated),inactive
2,CCSc1nc2ccccc2c(=O)n1CCc1ccc(OC)c(OC)c1,"inconclusive: 4.61 µM [cytotoxic, partial curve]"
3,CC(=O)c1ccc2c(c1)N(C)c1ccccc1S2,active: 23.1 µM
4,COC(=O)c1ccc2nc(NC(=O)C(C)C)sc2c1,inactive
5,O=C(CCn1nnc2ccccc21)N/N=C\Cc1ccccc1,inactive
6,Cc1cc(F)ccc1NC(=O)C1CCN(S(=O)(=O)c2ccc3c(c2)CCCC(=O)N3)CC1,"inconclusive: 23.1 µM [rising, single point]"
7,Cc1nc(C)c(C(=O)OCC(=O)Nc2ccc(C)c(C)c2)s1,inactive
8,COc1ccc(-c2csc(C(C)(O)c3cccc(F)c3)n2)cn1 (configuration not stated),inactive
9,CC1CCCN(C(=O)CSc2nc3ccccc3o2)C1 (configuration not stated),"inconclusive: 29.1 µM [cytotoxic, partial curve, poor fit]"
10,Cn1c(=O)c2c(SCCN3CCOCC3)nc(C3CCCC3)nc2n(C)c1=O,"inconclusive: 2.59 µM [cytotoxic, partial curve, poor fit]"
11,COc1ccccc1C(=O)Nc1nc2cc3c(cc2s1)OCO3,"inconclusive: 29.1 µM [cytotoxic, single point]"
12,Cc1ccc(NC(=O)CN2CCC(C(=O)c3ccc4c(c3)OCCO4)CC2)cc1,inactive
13,Cc1nc2c(-c3ccc(Cl)cc3)cnn2c2c1CCC2,inactive
14,O=C(Nc1cccc(C(F)(F)F)c1)C1CCN(S(=O)(=O)c2ccc(N3CCCC3=O)cc2)CC1,"inconclusive: 29.1 µM [cytotoxic, single point]"
15,CCN1C(=O)[C@H]2[C@@H](c3ccc(SC4CCCCC4)cc3)N[C@@](CC(C)C)(C(=O)OC)[C@H]2C1=O,"inconclusive: 32.6 µM [cytotoxic, single point]"
16,CC(=O)N1CCC2(CC1)CC(=O)c1cc(OCC(=O)N3CCOCC3)ccc1O2,inactive
17,COc1ccc(N2CCN(C(=O)CSc3nnc(-c4cccnc4)n3-c3ccc(F)cc3)CC2)cc1,"inconclusive: 20.6 µM [cytotoxic, partial curve]"
18,CC1CN(S(=O)(=O)c2ccc(C(=O)Nc3nc(-c4cc5ccccc5o4)cs3)cc2)CC(C)O1 (configuration not stated),"inconclusive: 0.731 µM [cytotoxic, full curve, poor fit]"
19,COc1ccc(-n2c(SCC(=O)Nc3ccccc3)nnc2-c2ccoc2C)cc1,"inconclusive: 8.2 µM [cytotoxic, partial curve]"
20,O=[N+]([O-])c1ccc(O)c(/C=N\N=C2c3ccccc3-c3ccccc32)c1,active: 13 µM
21,Cc1ccc2sc(=O)[nH]c2c1,inactive
22,COc1ccc(C(=O)NC(C)C2CC3CCC2C3)cc1 (configuration not stated),"inconclusive: 3.26 µM [rising, partial curve, poor fit]"
23,COc1ccccc1/C=C1\NC(=S)N(CC2CCCO2)C1=O (configuration not stated),"inconclusive: 18.4 µM [cytotoxic, single point]"
24,COc1ccc(-c2nc(CCl)cs2)cc1OC,"inconclusive: 29.1 µM [cytotoxic, single point]"

row,Compound,Potency
1,COc1cccc(NC(=O)N(Cc2cn(C)c3ccccc23)C2CCCCCC2)c1,"inconclusive: 18.4 µM [cytotoxic, single point]"
2,N#CC1=C(SCC(=O)NC2CCCCC2)NC(=O)CC1c1ccco1 (configuration not stated),inactive
3,CCN(CC)c1ncnc2c1ncn2[C@H]1CN(C2CCCC2)C[C@@H](CO)O1,inactive
4,CN1CC(c2ccccn2)C2(SC(=S)N(Cc3ccccc3)C2=O)C12C(=O)Nc1ccccc12 (configuration not stated),"inconclusive: 20.6 µM [cytotoxic, single point]"
5,COc1ccc(C2CC(=O)Oc3ccc(C(C)(C)C)cc32)cc1 (configuration not stated),"inconclusive: 29.1 µM [rising, single point]"
6,Cc1ccc(C)c(NC(=O)c2nc(-c3ccccc3)n(-c3ccccc3)n2)c1,"inconclusive: 9.2 µM [cytotoxic, partial curve, poor fit]"
7,Cc1nc2nc(C)c(CCC(=O)N3CCc4ccccc43)c(C)n2n1,active: 20.6 µM
8,NC1=NC(c2cc(F)cc(F)c2)n2c(nc3ccccc32)N1 (configuration not stated),"inconclusive: 29.1 µM [rising, single point]"
9,Cc1cccc(Nc2ccccc2C(=O)OCC(=O)NCc2ccco2)c1C,active: 13 µM
10,O=C(Nc1cc(S(=O)(=O)N2CCCCC2)ccc1N1CCCCC1)C1CC1,"inconclusive: 5.8 µM [cytotoxic, partial curve]"
11,COc1ccc(/C=C/C(=O)c2ccncc2)c2ccccc12,inactive
12,C[C@@H]1CN([C@H](C)CO)S(=O)(=O)c2ccc(C#CC3CCCC3)cc2O[C@H]1CN(C)C(=O)Cc1ccccc1,"inconclusive: 23.1 µM [cytotoxic, partial curve, poor fit]"
13,C=CCOc1ccccc1CN1CCC(n2nccc2NC(=O)c2ccccc2)CC1,inactive
14,Cc1c(Br)c([N+](=O)[O-])nn1CC(=O)Nc1c(C)n(C)n(-c2ccccc2)c1=O,inactive
15,Cc1ccc(-c2csc3ncnc(-n4nnc5ccccc54)c23)cc1,"inconclusive: 25.9 µM [cytotoxic, partial curve, poor fit]"
16,CCCc1cc(=O)oc2cc(C)cc(OC(C)C(=O)NCc3ccccn3)c12 (configuration not stated),inactive
17,Cc1ccc2c(c1)C1CN(C)CCC1N2C(=S)Nc1ccc(OC(F)F)cc1 (configuration not stated),"inconclusive: 6.51 µM [cytotoxic, partial curve]"
18,Cc1c(Cl)c([N+](=O)[O-])nn1CCCC(=O)NCCc1ccccc1,"inconclusive: 11.6 µM [cytotoxic, partial curve, poor fit]"
19,COc1ccc(OC)c(Nc2nc(-c3sc(C)nc3C)cs2)c1,"inconclusive: 29.1 µM [cytotoxic, single point]"
20,O=C(COc1cccnc1[N+](=O)[O-])N1CCc2ccccc21,inactive
21,Cc1ccc(-c2nnc(SCC#CCOC(=O)c3cccs3)o2)cc1,"inconclusive: 18.4 µM [cytotoxic, single point]"
22,FC(F)(F)c1ccc(-n2cnc3ccccc32)nc1,inactive
23,Cc1cc(C)nc(Oc2ccc(Br)cc2)n1,inactive
24,COc1cc(/C=C2\N=C(c3ccccc3)NNC2=O)cc(OC)c1OC,active: 4.11 µM

# Exported with tabs: entries from further up.
row	Compound	Potency
18	Cc1c(Cl)c([N+](=O)[O-])nn1CCCC(=O)NCCc1ccccc1	inconclusive: 11.6 µM [cytotoxic, partial curve, poor fit]
19	COc1ccc(OC)c(Nc2nc(-c3sc(C)nc3C)cs2)c1	inconclusive: 29.1 µM [cytotoxic, single point]
22	FC(F)(F)c1ccc(-n2cnc3ccccc32)nc1	inactive

# The list continues.

row,Compound,Potency
1,NNC(=O)c1sc(-c2ccccc2)cc1N,"inconclusive: 29.1 µM [cytotoxic, single point]"
2,Cc1cc(S(=O)(=O)Nc2ccc(C(=O)NCC(c3ccco3)N(C)C)cc2)ccc1F (configuration not stated),"inconclusive: 0.206 µM [rising, full curve]"
3,COC(=O)c1ccc2nc(C3CCCCC3)c(Cc3ccc(C)cc3)n2c1,inactive
4,COc1cc(-c2noc(C)c2C(=O)NCC[C@@H]2CCCN2C)cc(OC)c1OC,inactive
5,Cc1nc(Nc2nc(-c3ccccc3)cc(=O)[nH]2)nc2ccccc12,"inconclusive: 29.1 µM [cytotoxic, single point]"
6,COc1c(OC)c(O)c2c(=O)c(O)c(-c3ccccc3)oc2c1OC,"inconclusive: 29.1 µM [cytotoxic, single point]"
7,CCOC(=O)c1ccc(-c2ccc(/C=N/NC(=O)CN(c3ccccc3Cl)S(C)(=O)=O)o2)cc1,"inconclusive: 29.1 µM [cytotoxic, single point]"
8,Cc1cc(SCC(=O)c2cccs2)nc2c(C)cccc12,"inconclusive: 20.6 µM [cytotoxic, single point]"
9,Cc1c(Cl)cccc1-n1nc(C)c2c(C)cc(=O)n(CC(=O)N3CCCc4ccccc43)c21,inactive
10,Cc1cc(OC(C)C(=O)NCc2ccccn2)c2c(C)cc(=O)oc2c1 (configuration not stated),"inconclusive: 16.4 µM [cytotoxic, single point]"
11,COc1ccc(-c2nc3ccccc3n3c(-c4ccc(OC)cc4)c4c(=O)n(C)c(=O)n(C)c4c23)cc1,inactive
12,O=C(Nc1ccsc1C(=O)N1CCCCCC1)c1ccccc1,"inconclusive: 18.4 µM [cytotoxic, single point]"
13,COc1ccc(C2CC(C(F)(F)F)n3nc(C(=O)NCCCn4ccnc4)cc3N2)cc1OC (configuration not stated),inactive
14,C/C(=N\NC(=S)NCc1ccccc1)c1ccc(C(C)(C)C)cc1,active: 18.4 µM
15,O=C(NC(Cc1c[nH]c2ccccc12)C(=O)Nc1ccc(F)c([N+](=O)[O-])c1)c1cccs1 (configuration not stated),active: 6.51 µM
16,Cc1cc2oc3c(c(=O)c2cc1C)C(c1ccc(C(C)C)cc1)N(c1nc(C)c(C)s1)C3=O (configuration not stated),inactive
17,CN1CCN(c2nc(Nc3cccc(C(F)(F)F)c3)nc(N3CCOCC3)n2)CC1,"inconclusive: 6.51 µM [cytotoxic, partial curve, poor fit]"
18,Cc1cc(C)cc(NC(=O)C(c2ccccc2)N2CCN(CC(=O)NC3CC3)CC2)c1 (configuration not stated),active: 16.4 µM
19,CCCNC(=O)C1CCN(c2nc3ccc(C)cc3[nH]2)CC1,"inconclusive: 29.1 µM [rising, single point]"
20,Cc1cc(NS(=O)(=O)c2ccc(NC(=O)c3cc4ccccc4o3)cc2)nc(C)n1,"inconclusive: 20.6 µM [cytotoxic, partial curve, poor fit]"
21,O=C(c1ccc(NC(=O)C2(c3ccccc3)CCCC2)cc1)N1CCOCC1,"inconclusive: 25.9 µM [cytotoxic, single point]"
22,COc1cc(C(=O)OCCc2cc3ccccc3c(=O)o2)cc(OC)c1OC,"inconclusive: 3.26 µM [cytotoxic, full curve, poor fit]"
23,Cc1ccc(O)c(C2=NCCNC(C(F)(F)F)=C2)c1,inactive
24,COc1ccc(-c2cc(NC=O)c3ncc(-c4ccc(C(C)=O)cc4)n3c2)cn1,"inconclusive: 23.1 µM [cytotoxic, partial curve, poor fit]"

# Copied from above (2 entries):
row,Compound,Potency
15,Cc1ccc(-c2csc3ncnc(-n4nnc5ccccc54)c23)cc1,"inconclusive: 25.9 µM [cytotoxic, partial curve, poor fit]"
16,CCCc1cc(=O)oc2cc(C)cc(OC(C)C(=O)NCc3ccccn3)c12 (configuration not stated),inactive
